# Laboratory results from US20100021918A1, “METHOD FOR ASSAYING ACTION OF ANTITUMOR AGENT USING SPLICING DEFECTS AS INDEX” (Eisai R&D Management Co., Ltd., priority 2007, published 2010).
# The source gives many values for each of these; only a part stands here.
# System: peripheral blood mononuclear cells (PBMC)
# Assay: Microarray analysis (3), dose-dependent intron expression in PBMC at 3, 10, 30 nM, Table 5
# Assay type: cell-based, human
# Experimental: PBMC was suspended in RPMI1640 medium (containing 10% FBS, penicillin, and streptomycin) to 5×10^6 cells/ml and 1 ml of the suspension was plated per well of a 24-well plate. Immediately, 111 μl of 10 times-concentrated (8E,12E,14E)-7-((4-cycloheptylpiperazin-1-yl)carbonyl)oxy-3,6,16,21-tetrahydroxy-6,10,12,16,20-pentamethyl-18,19-epoxytricosa-8,12,14-trien-11-olide was added to the well (six wells per each concentration tested). The cells were then cultured in an incubator with 5% carbon dioxide gas at 37° C. Three hours later, the supernatant was collected and centrifuged at 1500 rpm for five minutes. TRI reagent (SIGMA) (1 ml) was added to each well of the plate from which the supernatant was removed to harvest the cells, which was added to the centrifuged pellet to dissolve. RNA was purified in accordance with the protocol of TRI reagent. RNA was further purified using RNeasy (QIAGEN) and, in accordance with the protocol, DNaseI was added to the samples during the procedure. Absorbance at 260 nm was measured to quantify an amount of RNA.
# Ribosomal RNA was removed from 1 μg of each total RNA of control cells (n=3) and cells with the treatment (n=3) using RiboMinus Human/Mouse Transcriptome Isolation Kit (Invitrogen). Single stranded cDNA synthesis, double stranded cDNA synthesis, cRNA synthesis, second single stranded cDNA synthesis, cDNA fragmentation, and cDNA labeling in order were carried out for total RNA from which ribosomal RNA was removed, using GeneChip Whole Transcript Sense Target Labeling and Control Reagents (Affymetrix) to make a cDNA probe. Subsequently, the cDNA probe was used for hybridization with Human Exon 1.0 ST Array (Affymetrix). The array was washed and stained, and luminescence intensity was measured by a scanner.
# The expression level of the probe set and the gene was quantified by using Expression Console Ver. 1.0 (Affymetrix) with Summarization Method and Normalization Method being set to “Median polish as used in RMA” and “None”, respectively. The expression level of the probe was normalized with that of the gene.
# Probe sets showing that the normalized change in the level expression of the probe set in the group with the treatment at 30 nM was more than 5 times; the expression level of the probe set and the gene in the group with the treatment at 30 nM was more than 100; and probe set annotation was “extended, full, free”, were picked out. Regression analysis was performed with the probe sets extracted for the control group, the group with the treatment at 3 nM, the group with the treatment at 10 nM, and the group with the treatment at 30 nM to determine a p and q value for the slope of regression formula. A gene containing the probe sets with the q value of less than 5% was determined as a candidate gene with increased expression level of the intron regions (Table 5).
# In Table 5, for the gene evaluated, gene name (Gene Name), abbreviated name (Gene Symbol), accession number (Accession), alias name (Synonym), transcription cluster number in Human Exon 1.0 ST Array (Human Exon 1.0 ST Array Transcription Cluster ID), chromosome number (Chromosome), type of strand (Strand), start region (Start), stop region (Stop), and change in expression level per 1 nM (Fold Change/nM) were respectively shown.
compound,measurement,setting,value
"CCC(O)C(C)C1OC1CC(C)(O)/C=C/C=C(\C)C1OC(=O)CC(O)CCC(C)(O)C(OC(=O)N2CCN(C3CCCCCC3)CC2)/C=C/C1C (centres unmarked) [E7107, (8E,12E,14E)-7-((4-cycloheptylpiperazin-1-yl)carbonyl)oxy-3,6,16,21-tetrahydroxy-6,10,12,16,20-pentamethyl-18,19-epoxytricosa-8,12,14-trien-11-olide]",Fold Change/nM,"gene SH2B3 introns, regression over control, 3, 10, 30 nM",1.05 nM⁻¹
same,Fold Change/nM,"gene SH2D2A introns, regression over control, 3, 10, 30 nM",1.05 nM⁻¹
same,Fold Change/nM,"gene SLC2A3 introns, regression over control, 3, 10, 30 nM",1.05 nM⁻¹
same,Fold Change/nM,"gene SLC3A2 introns, regression over control, 3, 10, 30 nM",1.05 nM⁻¹
same,Fold Change/nM,"gene SLC38A1, intron expression, 3, 10, 30 nM",1.06 nM⁻¹
same,Fold Change/nM,"gene SMAD3 introns, regression over control, 3, 10, 30 nM",1.05 nM⁻¹
same,Fold Change/nM,"gene SMCHD1, intron expression, 3, 10, 30 nM",1.06 nM⁻¹
same,Fold Change/nM,"gene SMEK2 introns, regression over control, 3, 10, 30 nM",1.05 nM⁻¹
same,Fold Change/nM,"gene SMG7, intron expression, 3, 10, 30 nM",1.06 nM⁻¹
same,Fold Change/nM,"gene SMURF2, intron expression, 3, 10, 30 nM",1.06 nM⁻¹
same,Fold Change/nM,"gene SNRPB2 introns, regression over control, 3, 10, 30 nM",1.05 nM⁻¹
same,Fold Change/nM,"gene SOD2 // MGC5618, intron expression, 3, 10, 30 nM",1.06 nM⁻¹
same,Fold Change/nM,"gene SP110, intron expression, 3, 10, 30 nM",1.06 nM⁻¹
same,Fold Change/nM,"gene SPAG9, intron expression, 3, 10, 30 nM",1.06 nM⁻¹
same,Fold Change/nM,"gene SQSTM1 // OSIL introns, regression over control, 3, 10, 30 nM",1.05 nM⁻¹
same,Fold Change/nM,"gene SRPK2 introns, regression over control, 3, 10, 30 nM",1.05 nM⁻¹
same,Fold Change/nM,"gene STIM2 introns, regression over control, 3, 10, 30 nM",1.05 nM⁻¹
same,Fold Change/nM,"gene STK38L introns, regression over control, 3, 10, 30 nM",1.05 nM⁻¹
same,Fold Change/nM,"gene TARDBP, intron expression, 3, 10, 30 nM",1.06 nM⁻¹
same,Fold Change/nM,"gene TCF12, intron expression, 3, 10, 30 nM",1.06 nM⁻¹
same,Fold Change/nM,"gene TDRD7, intron expression, 3, 10, 30 nM",1.06 nM⁻¹
same,Fold Change/nM,"gene THRAP2 introns, regression over control, 3, 10, 30 nM",1.05 nM⁻¹
same,Fold Change/nM,"gene TMBIM4 introns, regression over control, 3, 10, 30 nM",1.05 nM⁻¹
same,Fold Change/nM,"gene TMOD3 introns, regression over control, 3, 10, 30 nM",1.05 nM⁻¹
same,Fold Change/nM,"gene TNKS2 introns, regression over control, 3, 10, 30 nM",1.05 nM⁻¹
same,Fold Change/nM,"gene TOP1, intron expression, 3, 10, 30 nM",1.06 nM⁻¹
same,Fold Change/nM,"gene TOP2B introns, regression over control, 3, 10, 30 nM",1.05 nM⁻¹
same,Fold Change/nM,"gene TSC22D3, intron expression, 3, 10, 30 nM",1.06 nM⁻¹
same,Fold Change/nM,"gene TTRAP introns, regression over control, 3, 10, 30 nM",1.05 nM⁻¹
same,Fold Change/nM,"gene TXNDC14 // CTNND1, intron expression, 3, 10, 30 nM",1.06 nM⁻¹
same,Fold Change/nM,"gene TXNL1 introns, regression over control, 3, 10, 30 nM",1.05 nM⁻¹
same,Fold Change/nM,"gene TXNRD1 introns, regression over control, 3, 10, 30 nM",1.05 nM⁻¹
same,Fold Change/nM,"gene UBAP1, intron expression, 3, 10, 30 nM",1.06 nM⁻¹
same,Fold Change/nM,"gene UBB // C17orf45, intron expression, 3, 10, 30 nM",1.06 nM⁻¹
same,Fold Change/nM,"gene UBE3A introns, regression over control, 3, 10, 30 nM",1.05 nM⁻¹
same,Fold Change/nM,"gene UBP1, intron expression, 3, 10, 30 nM",1.06 nM⁻¹
same,Fold Change/nM,"gene UBQLN1 // DIDO1 introns, regression over control, 3, 10, 30 nM",1.05 nM⁻¹
same,Fold Change/nM,"gene USP7, intron expression, 3, 10, 30 nM",1.06 nM⁻¹
same,Fold Change/nM,"gene USP9X // USP9Y, intron expression, 3, 10, 30 nM",1.05 nM⁻¹
same,Fold Change/nM,"gene USP36 introns, regression over control, 3, 10, 30 nM",1.05 nM⁻¹
same,Fold Change/nM,"gene VPS53 introns, regression over control, 3, 10, 30 nM",1.05 nM⁻¹
same,Fold Change/nM,"gene WAC introns, regression over control, 3, 10, 30 nM",1.05 nM⁻¹
same,Fold Change/nM,"gene WAPAL introns, regression over control, 3, 10, 30 nM",1.05 nM⁻¹
same,Fold Change/nM,"gene ZC3HAV1 introns, regression over control, 3, 10, 30 nM",1.05 nM⁻¹
same,Fold Change/nM,"gene ZFAND3, intron expression, 3, 10, 30 nM",1.06 nM⁻¹
same,Fold Change/nM,"gene ZNF207, intron expression, 3, 10, 30 nM",1.06 nM⁻¹
same,Fold Change/nM,"gene ZNF451 // KIAA1702, intron expression, 3, 10, 30 nM",1.06 nM⁻¹
same,Fold Change/nM,"intron expression of gene C1orf50 (cluster 2332767), slope over control, 3, 10, 30 nM",1.04 nM⁻¹
same,Fold Change/nM,"intron expression of gene C6orf94 // LTV1 (cluster 2929036), slope over control, 3, 10, 30 nM",1.04 nM⁻¹
same,Fold Change/nM,"intron expression of gene CCT6A (cluster 3003193), slope over control, 3, 10, 30 nM",1.04 nM⁻¹
same,Fold Change/nM,"intron expression of gene CD3D (cluster 3393744), slope over control, 3, 10, 30 nM",1.04 nM⁻¹
same,Fold Change/nM,"intron expression of gene CLEC5A (cluster 3076868), slope over control, 3, 10, 30 nM",1.04 nM⁻¹
same,Fold Change/nM,"intron expression of gene EIF3S9 (cluster 2987441), slope over control, 3, 10, 30 nM",1.04 nM⁻¹
same,Fold Change/nM,"intron expression of gene ELMO1 (cluster 3046197), slope over control, 3, 10, 30 nM",1.04 nM⁻¹
same,Fold Change/nM,"intron expression of gene FXR1 (cluster 2654394), slope over control, 3, 10, 30 nM",1.04 nM⁻¹
same,Fold Change/nM,"intron expression of gene GBP5 (cluster 2422035), slope over control, 3, 10, 30 nM",1.04 nM⁻¹
